Results are given in words; binding and its absence hold for the method and conditions named. Some binding calls cover weakened binding; strength is not graded here.
What was measured:
CD22 on K562-CD22 cells = CD22 on K562-CD22 cells (UniProt P20273); assay: flow cytometry on K562-CD22 cells, antibody from 10 ug/mL, 3-fold, 9 points, PE anti-mouse IgG
[1] = molecular target: 人CD22胞外段缀合His标签 (hCD22-His, ACRO, CD2-H52H8) (human) (UniProt P20273); assay: ELISA, hCD22-His coated at 2 ug/ml, 3-fold antibody dilutions

By UniProt entry, the sequences of proteins in these tests, tags left out. Where a name states a change or a piece, a line headed by the entry shows the natural chain unless it says otherwise. Residues count along the entry.
UniProt P20273: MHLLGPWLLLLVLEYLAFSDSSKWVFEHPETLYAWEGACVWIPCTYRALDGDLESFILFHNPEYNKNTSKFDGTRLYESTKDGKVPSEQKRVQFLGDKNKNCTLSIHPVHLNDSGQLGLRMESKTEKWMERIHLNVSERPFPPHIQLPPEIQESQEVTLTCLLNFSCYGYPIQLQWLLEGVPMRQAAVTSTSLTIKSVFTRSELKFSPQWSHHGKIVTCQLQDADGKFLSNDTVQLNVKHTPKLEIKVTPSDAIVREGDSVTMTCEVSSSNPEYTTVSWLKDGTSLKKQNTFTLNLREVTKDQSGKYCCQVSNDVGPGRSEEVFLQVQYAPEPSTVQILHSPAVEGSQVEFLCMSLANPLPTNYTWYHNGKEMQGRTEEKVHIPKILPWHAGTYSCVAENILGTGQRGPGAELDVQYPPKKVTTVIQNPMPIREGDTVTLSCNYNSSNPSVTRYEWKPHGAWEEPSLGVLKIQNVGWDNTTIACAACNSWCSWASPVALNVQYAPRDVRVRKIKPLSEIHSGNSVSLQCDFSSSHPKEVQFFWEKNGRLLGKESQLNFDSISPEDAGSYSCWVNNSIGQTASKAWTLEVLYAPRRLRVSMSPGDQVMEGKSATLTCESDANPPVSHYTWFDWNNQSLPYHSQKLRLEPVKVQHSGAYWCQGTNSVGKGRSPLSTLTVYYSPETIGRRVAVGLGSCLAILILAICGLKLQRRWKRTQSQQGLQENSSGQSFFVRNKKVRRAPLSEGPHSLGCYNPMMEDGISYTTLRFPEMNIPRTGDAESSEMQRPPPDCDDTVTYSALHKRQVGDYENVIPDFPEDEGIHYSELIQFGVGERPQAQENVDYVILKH
CD22 on K562-CD22 cells: residues 20-847 of P20273
人CD22胞外段缀合His标签 (hCD22-His, ACRO, CD2-H52H8): residues 20-687 of P20273

Row | binding (CD22 on K562-CD22 cells) | binding [1] | Binder
1 | binds | – | 5CD22-111-1-C3 (antibody, mouse IgG1, kappa, V domains shown) VH: EVKLEESGGGLVQPGGFMKLSCVASGFTFSNYWMNWVRQSPERGLEWVAEIRLKSNDYATHYAESVKGRFTISRDDSKSNVYLQMNNLRAEDTGIYYCTRVYYYGRDYAMDYWGQGTSVTVSS VL: QIVLTQSPAIMSASLGERVTMTCTASSSVSSIYLHWYQQKPGSSPKLWIYSTSNLASGVPGRFSGSGSGTSYSLTISSMEAEDAATYYCHQYHRSPRTFGGGTKLEIKR
2 | binds | binds | FC2-045 (antibody, mouse IgG2a, kappa, V domains shown) VH: QVQLQQSGAELVRPGASVTLSCKASGYTFTDYEMHWVKQTLVHGLEWIGAIDPETGATAYNQKFKGKATLTADKSSSTAYMELRSLTSEDSAVYYCTRSNWDGWFAYWGQGTLVTVSA VL: DIQMTQSSSSFSVSLGDRVTITCKASEDIYNRLAWYQQKPGSAPRLLISGATSLETGVPSRFSGSGSGKDYTLNITSLQTEDVATYYCQQYWSSWTFGGGTKLEIKR
